{"source": "PubChem BioAssay AID1159508 (Drosophila RNAi Screening Center, 2015)", "aim": "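How silencing genes for RNA-binding proteins changes cellular ATP without other treatment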", "system": "Drosophila S2R+ cells", "knock-down reagent": "long dsRNA against Drosophila genes", "timing": "5 days", "read-out": "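Luminescent ATP signal as a proxy for cell fitness after 5 days of RNAi, given as a z-score in each replicate and averaged over replicates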", "direction": "mean ATP z-score and ATP z-score: higher = more total ATP luminescence", "call rule": "In these data the active calls have mean ATP z-score at about -2 or lower, or at about 2 or higher", "meaning of the calls": "active = strong ATP change (up or down); inactive = no strong ATP change", "note": "The deposit covers 812 reagents; this is an unselected part. Over the whole deposit, 18 (2.2%) are marked active. 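Calls include both increased and decreased ATP; roughly one in four reagents has no third replicate value.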 A plus sign joins genes that one reagent is predicted to hit. Not all columns of the deposit are shown. Reagent sequences are not shown. Not stated in the record: the amount of reagent."}
{"target": "su(w[a])", "amplicon": "DRSC18840", "mean ATP z-score": 0.46, "ATP z-score, replicate 1": 0.212, "outcome": "inactive"}
{"target": "su(w[a])", "amplicon": "DRSC29287", "mean ATP z-score": -0.969, "ATP z-score, replicate 1": -0.983, "outcome": "inactive"}
{"target": "nanos", "amplicon": "DRSC17018", "mean ATP z-score": 0.233, "ATP z-score, replicate 1": 0.164, "outcome": "inactive"}
{"target": "nanos", "amplicon": "DRSC25268", "mean ATP z-score": -0.775, "ATP z-score, replicate 1": -1.39, "outcome": "inactive"}
{"target": "spen", "amplicon": "DRSC34301", "mean ATP z-score": -0.508, "ATP z-score, replicate 1": -0.857, "outcome": "inactive"}
{"target": "spen", "amplicon": "DRSC34302", "mean ATP z-score": 0.328, "ATP z-score, replicate 1": -0.157, "outcome": "inactive"}
{"target": "CG14641", "amplicon": "DRSC12227", "mean ATP z-score": 0.398, "ATP z-score, replicate 1": 0.0163, "outcome": "inactive"}
{"target": "CG14641", "amplicon": "DRSC31836", "mean ATP z-score": -0.704, "ATP z-score, replicate 1": -0.981, "outcome": "inactive"}
{"target": "Mkp + CG34140", "amplicon": "DRSC08585", "mean ATP z-score": 0.857, "ATP z-score, replicate 1": 0.632, "outcome": "inactive"}
{"target": "Mkp + CG34140", "amplicon": "DRSC26000", "mean ATP z-score": -0.545, "ATP z-score, replicate 1": -0.676, "outcome": "inactive"}
{"target": "Prp5", "amplicon": "DRSC27434", "mean ATP z-score": -0.9, "ATP z-score, replicate 1": -1.01, "outcome": "inactive"}
{"target": "Prp5", "amplicon": "DRSC35423", "mean ATP z-score": 1.48, "ATP z-score, replicate 1": 1.05, "outcome": "inactive"}
{"target": "barc", "amplicon": "DRSC11792", "mean ATP z-score": -1.02, "ATP z-score, replicate 1": -1.18, "outcome": "inactive"}
{"target": "barc", "amplicon": "DRSC35410", "mean ATP z-score": 0.0645, "ATP z-score, replicate 1": -0.243, "outcome": "inactive"}
{"target": "Dus2", "amplicon": "DRSC19591", "mean ATP z-score": -0.39, "ATP z-score, replicate 1": -0.763, "outcome": "inactive"}
{"target": "Dus2", "amplicon": "DRSC42655", "mean ATP z-score": 0.445, "ATP z-score, replicate 1": -0.00751, "outcome": "inactive"}
{"target": "aub", "amplicon": "DRSC26878", "mean ATP z-score": -0.525, "ATP z-score, replicate 1": -0.766, "outcome": "inactive"}
{"target": "aub", "amplicon": "DRSC37297", "mean ATP z-score": 0.266, "ATP z-score, replicate 1": -0.157, "outcome": "inactive"}
{"target": "AGO1", "amplicon": "DRSC30762", "mean ATP z-score": 3.06, "ATP z-score, replicate 1": 2.78, "outcome": "active"}
{"target": "AGO1", "amplicon": "DRSC39159", "mean ATP z-score": 3.38, "ATP z-score, replicate 1": 3.04, "outcome": "active"}
{"target": "SrpRalpha", "amplicon": "DRSC20251", "mean ATP z-score": -0.0369, "ATP z-score, replicate 1": -0.149, "outcome": "inactive"}
{"target": "SrpRalpha", "amplicon": "DRSC42641", "mean ATP z-score": -0.278, "ATP z-score, replicate 1": -0.467, "outcome": "inactive"}
{"target": "Nab2", "amplicon": "DRSC27135", "mean ATP z-score": 0.0186, "ATP z-score, replicate 1": -0.368, "outcome": "inactive"}
{"target": "Nab2", "amplicon": "DRSC35392", "mean ATP z-score": -0.148, "ATP z-score, replicate 1": -0.396, "outcome": "inactive"}
{"target": "Dcr-1", "amplicon": "DRSC15646", "mean ATP z-score": 0.585, "ATP z-score, replicate 1": 0.158, "outcome": "inactive"}
{"target": "Dcr-1", "amplicon": "DRSC27421", "mean ATP z-score": -0.589, "ATP z-score, replicate 1": -0.664, "outcome": "inactive"}
{"target": "APC4", "amplicon": "DRSC29994", "mean ATP z-score": 0.366, "ATP z-score, replicate 1": -0.253, "outcome": "inactive"}
{"target": "APC4", "amplicon": "DRSC35244", "mean ATP z-score": 2.09, "ATP z-score, replicate 1": 1.69, "outcome": "active"}
{"target": "Hmu", "amplicon": "DRSC28454", "mean ATP z-score": 0.466, "ATP z-score, replicate 1": 0.312, "outcome": "inactive"}
{"target": "Hmu", "amplicon": "DRSC41044", "mean ATP z-score": 0.471, "ATP z-score, replicate 1": -0.0373, "outcome": "inactive"}
{"target": "maca", "amplicon": "DRSC15738", "mean ATP z-score": -0.341, "ATP z-score, replicate 1": -0.569, "outcome": "inactive"}
{"target": "maca", "amplicon": "DRSC42701", "mean ATP z-score": -0.465, "ATP z-score, replicate 1": -0.548, "outcome": "inactive"}

Quoted from the listing (5 entries):
{"target": "APC4", "amplicon": "DRSC35244", "mean ATP z-score": 2.09, "ATP z-score, replicate 1": 1.69, "outcome": "active"}
{"target": "Hmu", "amplicon": "DRSC28454", "mean ATP z-score": 0.466, "ATP z-score, replicate 1": 0.312, "outcome": "inactive"}
{"target": "Hmu", "amplicon": "DRSC41044", "mean ATP z-score": 0.471, "ATP z-score, replicate 1": -0.0373, "outcome": "inactive"}
{"target": "maca", "amplicon": "DRSC15738", "mean ATP z-score": -0.341, "ATP z-score, replicate 1": -0.569, "outcome": "inactive"}
{"target": "maca", "amplicon": "DRSC42701", "mean ATP z-score": -0.465, "ATP z-score, replicate 1": -0.548, "outcome": "inactive"}
